Further values from the same series stand in other lists.
Tested on: HEK293T nuclear lysates
Test: SILAC‐based pull‐down proteomics H4K5acK8ac/H4K5 (probes 8/5)
Assay type: binding, human
Conditions: for A6 log2 (H4K5ac8ac/H4K5): replicate A6; for B6 log2 (H4K5ac8ac/H4K5): replicate B6
[1] = Uncharacterized protein (A0A1W2PNV4)

Substance: probe 8: H4K5acK8ac peptide probe with photo‐arginine R(dz) and K(biotin) (SGRGKGGKGLGKGGK; photo-arginine R(dz) at 3; acetyl-lysine at 5; acetyl-lysine at 8; K(biotin) at 15)
- A6 log2 (H4K5ac8ac/H4K5) [1]: -0.0618
- B6 log2 (H4K5ac8ac/H4K5) [1]: 0.1865
- A6 log2 (H4K5ac8ac/H4K5) (protein ACAT1 (A0A5F9ZHJ7)): 0.2924
- B6 log2 (H4K5ac8ac/H4K5) (protein ACAT1 (A0A5F9ZHJ7)): 0.1518
- A6 log2 (H4K5ac8ac/H4K5) (protein ALDOA (P04075)): 0.1612
- B6 log2 (H4K5ac8ac/H4K5) (protein ALDOA (P04075)): 0.1759
- A6 log2 (H4K5ac8ac/H4K5) (protein ATF7IP (Q6VMQ6)): 0.2905
- B6 log2 (H4K5ac8ac/H4K5) (protein ATF7IP (Q6VMQ6)): 0.1962
- A6 log2 (H4K5ac8ac/H4K5) (protein ATP1A1 (P05023)): 0.2256
- B6 log2 (H4K5ac8ac/H4K5) (protein ATP1A1 (P05023)): 0.1538
- A6 log2 (H4K5ac8ac/H4K5) (protein Asun (Q9NVM9)): -0.214
- B6 log2 (H4K5ac8ac/H4K5) (protein Asun (Q9NVM9)): 0.121
- A6 log2 (H4K5ac8ac/H4K5) (protein CAND1 (Q86VP6)): -0.04551
- B6 log2 (H4K5ac8ac/H4K5) (protein CAND1 (Q86VP6)): 0.139
- A6 log2 (H4K5ac8ac/H4K5) (protein CAPZB (B1AK87)): 0.4345
- B6 log2 (H4K5ac8ac/H4K5) (protein CAPZB (B1AK87)): 0.1041
- A6 log2 (H4K5ac8ac/H4K5) (protein CAST (E9PCH5)): -0.07117
- B6 log2 (H4K5ac8ac/H4K5) (protein CAST (E9PCH5)): 0.1827
- A6 log2 (H4K5ac8ac/H4K5) (protein CD2AP (Q9Y5K6)): 0.3843
- B6 log2 (H4K5ac8ac/H4K5) (protein CD2AP (Q9Y5K6)): 0.104
- A6 log2 (H4K5ac8ac/H4K5) (protein CLTC (Q00610)): -0.7564
- B6 log2 (H4K5ac8ac/H4K5) (protein CLTC (Q00610)): 0.2198
- A6 log2 (H4K5ac8ac/H4K5) (protein COPB2 (P35606)): 0.3347
- B6 log2 (H4K5ac8ac/H4K5) (protein COPB2 (P35606)): 0.195
- A6 log2 (H4K5ac8ac/H4K5) (protein CPSF4 (O95639)): -0.06181
- B6 log2 (H4K5ac8ac/H4K5) (protein CPSF4 (O95639)): 0.1145
- A6 log2 (H4K5ac8ac/H4K5) (protein CTBP2 (P56545)): 0.4559
- B6 log2 (H4K5ac8ac/H4K5) (protein CTBP2 (P56545)): 0.2056
- A6 log2 (H4K5ac8ac/H4K5) (protein CTPS1 (B4E1E0)): 0.191
- B6 log2 (H4K5ac8ac/H4K5) (protein CTPS1 (B4E1E0)): 0.1554
- A6 log2 (H4K5ac8ac/H4K5) (protein DDB1 (Q16531)): -0.1673
- B6 log2 (H4K5ac8ac/H4K5) (protein DDB1 (Q16531)): 0.08721
- A6 log2 (H4K5ac8ac/H4K5) (protein DDX5 (J3KTA4)): 0.1359
- B6 log2 (H4K5ac8ac/H4K5) (protein DDX5 (J3KTA4)): 0.1808
- A6 log2 (H4K5ac8ac/H4K5) (protein DDX17 (A0A1X7SBZ2)): 0.037
- B6 log2 (H4K5ac8ac/H4K5) (protein DDX17 (A0A1X7SBZ2)): 0.182
- A6 log2 (H4K5ac8ac/H4K5) (protein DDX39B (Q13838)): -0.002674
- B6 log2 (H4K5ac8ac/H4K5) (protein DDX39B (Q13838)): 0.1671
- A6 log2 (H4K5ac8ac/H4K5) (protein DENR (O43583)): 0.114
- B6 log2 (H4K5ac8ac/H4K5) (protein DENR (O43583)): 0.1523
- A6 log2 (H4K5ac8ac/H4K5) (protein DFFA (O00273)): -0.2825
- B6 log2 (H4K5ac8ac/H4K5) (protein DFFA (O00273)): 0.1945
- A6 log2 (H4K5ac8ac/H4K5) (protein DIS3 (G3V1J5)): 0.07062
- B6 log2 (H4K5ac8ac/H4K5) (protein DIS3 (G3V1J5)): 0.1019
- A6 log2 (H4K5ac8ac/H4K5) (protein DNMT1 (P26358)): 0.2483
- B6 log2 (H4K5ac8ac/H4K5) (protein DNMT1 (P26358)): 0.1378
- A6 log2 (H4K5ac8ac/H4K5) (protein DYNC1I2 (Q13409)): -0.08936
- B6 log2 (H4K5ac8ac/H4K5) (protein DYNC1I2 (Q13409)): 0.1717
- A6 log2 (H4K5ac8ac/H4K5) (protein EEF1B2 (P24534)): -0.1564
- B6 log2 (H4K5ac8ac/H4K5) (protein EEF1B2 (P24534)): 0.08965
- A6 log2 (H4K5ac8ac/H4K5) (protein EIF2S3 (P41091)): -0.0417
- B6 log2 (H4K5ac8ac/H4K5) (protein EIF2S3 (P41091)): 0.1741
- A6 log2 (H4K5ac8ac/H4K5) (protein EIF4H (Q15056)): 0.0492
- B6 log2 (H4K5ac8ac/H4K5) (protein EIF4H (Q15056)): 0.1409
- A6 log2 (H4K5ac8ac/H4K5) (protein EXOSC8 (Q96B26)): 0.7219
- B6 log2 (H4K5ac8ac/H4K5) (protein EXOSC8 (Q96B26)): 0.1391
- A6 log2 (H4K5ac8ac/H4K5) (protein FAM120B (Q96EK7)): 0.6348
- B6 log2 (H4K5ac8ac/H4K5) (protein FAM120B (Q96EK7)): 0.1448
- A6 log2 (H4K5ac8ac/H4K5) (protein FLNA (P21333)): 0.03026
- B6 log2 (H4K5ac8ac/H4K5) (protein FLNA (P21333)): 0.1272
- A6 log2 (H4K5ac8ac/H4K5) (protein FSCN1 (Q16658)): 0.07927
- B6 log2 (H4K5ac8ac/H4K5) (protein FSCN1 (Q16658)): 0.1021
- A6 log2 (H4K5ac8ac/H4K5) (protein FUBP3 (Q96I24)): 0.2633
- B6 log2 (H4K5ac8ac/H4K5) (protein FUBP3 (Q96I24)): 0.1016
- A6 log2 (H4K5ac8ac/H4K5) (protein GLUL (P15104)): 0.2476
- B6 log2 (H4K5ac8ac/H4K5) (protein GLUL (P15104)): 0.09311
- A6 log2 (H4K5ac8ac/H4K5) (protein GRB10 (Q13322)): 0.5675
- B6 log2 (H4K5ac8ac/H4K5) (protein GRB10 (Q13322)): 0.1899
- A6 log2 (H4K5ac8ac/H4K5) (protein HNRNPK (P61978)): 0.1796
- B6 log2 (H4K5ac8ac/H4K5) (protein HNRNPK (P61978)): 0.1868
- A6 log2 (H4K5ac8ac/H4K5) (protein HSPA4 (A0A087WYC1)): 0.08327
- B6 log2 (H4K5ac8ac/H4K5) (protein HSPA4 (A0A087WYC1)): 0.1794
- A6 log2 (H4K5ac8ac/H4K5) (protein IRF2BP2 (Q7Z5L9)): 0.2789
- B6 log2 (H4K5ac8ac/H4K5) (protein IRF2BP2 (Q7Z5L9)): 0.189
- A6 log2 (H4K5ac8ac/H4K5) (protein JUN (P05412)): 0.3522
- B6 log2 (H4K5ac8ac/H4K5) (protein JUN (P05412)): 0.182
- A6 log2 (H4K5ac8ac/H4K5) (protein KIF2C (Q99661)): 0.1411
- B6 log2 (H4K5ac8ac/H4K5) (protein KIF2C (Q99661)): 0.1836
- A6 log2 (H4K5ac8ac/H4K5) (protein KIF4A (O95239)): -0.1665
- B6 log2 (H4K5ac8ac/H4K5) (protein KIF4A (O95239)): 0.1038
- A6 log2 (H4K5ac8ac/H4K5) (protein KPNB1 (Q14974)): -0.1523
- B6 log2 (H4K5ac8ac/H4K5) (protein KPNB1 (Q14974)): 0.1373
- A6 log2 (H4K5ac8ac/H4K5) (protein LASP1 (Q14847)): 0.0311
- B6 log2 (H4K5ac8ac/H4K5) (protein LASP1 (Q14847)): 0.1023
- A6 log2 (H4K5ac8ac/H4K5) (protein LBR (A0A494C1L1)): 0.1625
- B6 log2 (H4K5ac8ac/H4K5) (protein LBR (A0A494C1L1)): 0.1824
- A6 log2 (H4K5ac8ac/H4K5) (protein LETM1 (O95202)): 0.6107
- B6 log2 (H4K5ac8ac/H4K5) (protein LETM1 (O95202)): 0.1117
- A6 log2 (H4K5ac8ac/H4K5) (protein LMNB1 (P20700)): 0.2466
- B6 log2 (H4K5ac8ac/H4K5) (protein LMNB1 (P20700)): 0.1814

Reference: paper PMC11005723, “Development of Complementary Photo‐arginine/lysine to Promote Discovery of Arg/Lys hPTMs Interactomes” (Advanced Science, 2024)
